Test results taken from PubChem BioAssay AID1794845 (National Center for Advancing Translational Sciences (NCATS), 2023).
In all, about 6,900 compounds went through this assay and fewer than 10 were called active. Calls come from the whole dose curve; as a rule, active = well fitted curve in the direction sought with a large enough effect; inconclusive = small, poorly fitted or top-dose-only effect, or another doubt; inactive = no such curve, though single readings can be large or run the other way. The list shows a part of the results.

Chains of the proteins cited; added tags and fusions are not shown. Lines headed by an entry give the natural chain unless they say otherwise; changes in a name come on top.
UniProt C7C422: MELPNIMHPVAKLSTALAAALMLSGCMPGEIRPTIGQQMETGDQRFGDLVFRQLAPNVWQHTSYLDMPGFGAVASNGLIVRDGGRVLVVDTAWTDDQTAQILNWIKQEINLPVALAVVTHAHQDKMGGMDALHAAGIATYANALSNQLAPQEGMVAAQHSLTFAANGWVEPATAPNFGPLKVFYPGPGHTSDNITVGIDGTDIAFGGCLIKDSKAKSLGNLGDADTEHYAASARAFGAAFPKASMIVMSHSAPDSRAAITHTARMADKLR

target: Metallo-beta-lactamase type 2 (Klebsiella pneumoniae) (UniProt C7C422); test: qHTS to identify inhibitors of the New Delhi Metallo-beta-lactamase (NDM): primary screen against the NCATS Gemini Collection; details: NDM-1 enzyme, meropenem hydrolysis, absorbance 300 nm; at 38.4 µM (top of the series) unless noted; note: % of control where 0% means no effect
Outline: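 NDM-1 at 2 nM final in 50 mM HEPES pH 7.0, 1 uM ZnSO4, 0.01% Tween20, preincubated >30 min with compound. Meropenem 50 uM final added; absorbance at 300 nm after 30 min.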

Activity % (negative = inhibition), inactive:
CCN1CC(c2nc(-c3ccc4nc[nH]c4c3)no2)CCC1=O (stereo not given) -10.1%, CCn1cc(CN(C)C(=O)CN2C(=O)C(Oc3ccc(F)cc3)C23CCCCC3)c(C)n1 (stereo not given) 3.25%, Cc1cnc(-c2cccnc2)n1C1CCCN(CC2CCCCC2)C1 (stereo not given) 1.77%, Cc1ccsc1C(=O)N1C[C@@H](F)C[C@H]1C(=O)N1CCCCC1 -0.377%, Cc1ccc(C)c(S(=O)(=O)N2[C@@H]3CC[C@H]2CC(NC(=O)c2ccc(F)cc2)C3)c1 (stereo not given in full) 5.58%, CC(=O)N1CCN(C(=O)c2nc(-c3ccccc3)cs2)CC(O)C1 (stereo not given) -0.77%, Cc1nnc([C@H]2CCN(C3CCN(C)CC3)C2)o1 0.078% [at 77.1 µM], COC(=O)c1ccc2nc(C[C@@H]3C[C@@H](C(C)C)[C@H](CNC(=O)c4cccnc4)C=C3C)[nH]c2c1 14.2%, CN(CCN1CCCCCC1)C(=O)c1cc(COc2ccccc2)[nH]n1 41.3%, CC(C)c1noc(Cn2nc(-c3ccccc3)c3ccccc3c2=O)n1 -1.52%, O[C@@H]1[C@@H](Cn2cc(C3CC3)nn2)C[C@@H](NCc2nccs2)[C@@H]1O 6.16%, COc1ccc(CNC(=O)[C@@H]2CCC[C@@H](NCc3cccnc3)CN(C)C(=O)C2)cc1 -2.15% [at 57.5 µM], COCC1CN(C)CC12CCN(C(=O)Cc1ccc(OC)c(Cl)c1)CC2 (stereo not given) -6.13%, COCCN1CCOC[C@H]2CCN(C(=O)c3cnccn3)C[C@H]21 0.963%, COc1cccc([S+](=O)([O-])N2CCC3(C2)N=C(c2cccnc2)C(=O)N3)c1 (stereo not given) 4.07%, C=CCN(C)C(=O)CC1COc2ccc(C(=O)N(C)C)cc2N1C (stereo not given) 7.81%, COc1ccc2c(c1)C(CN1CCN(CC(=O)OC(C)(C)C)CC1)=CC(C)(C)O2 1.29%, O=C(O)C1Cn2cccc2C(=O)N1Cc1cccnc1 (stereo not given) 10%, COc1ccc(CNC(=O)C2CN(S(=O)(=O)C3CC3)CC23CCCCC3)cc1 (stereo not given) 42.6%, CCn1nc(C)cc1C(=O)NCc1cccnc1N1CCOCC1 9.45%, CN(C)C[C@@H]1CN(Cc2ccccn2)C[C@H]1NC(=O)c1ccc(Cl)s1 9.43%, COc1cccc([S+](=O)([O-])N2CCC23Cc2ccccc2NC3=O)c1 (stereo not given) -0.739%, O=C(O)c1ccnc(-c2ccnc(NCC(O)c3ccccc3Cl)n2)c1 (stereo not given) 0.618%, c1ccc(N2CCCC(c3nccn3Cc3ccncc3)C2)nc1 (stereo not given) -2.58%, Cc1ccc(-n2nc(C)c([C@H]3C=C[C@@H](OC(=O)Nc4ccc(C(C)C)cc4)C3)c2C)cc1Cl 1.71%, CN(C)S(=O)(=O)N1C[C@@H](Oc2cccnc2)C[C@H]1C(=O)N1CCOCC1 0.221%, Cc1cc(N2CCN(Cc3nnc(C4CC(N)C4)n3C)CC2)cc(C)n1 (stereo not given) 3.51%, COc1ccccc1-c1nnc2ccc(C(=O)N3CCN(C(C)=O)CC3)cn12 75.9%, CCCS(=O)(=O)N1CC(Oc2ccccc2-c2noc(C)n2)C1 -0.112%, CCCCN(C)C(=O)c1c(C)sc2ccn(CCC)c(=O)c12 54.6%, CN(C)C(=O)[C@]12CCCC[C@@H]1N(CCc1ccccc1)C(=O)CC2 34.5%, COc1cccc(N2CCN(C(=O)CCn3ccn4nc5c(c4c3=O)CCCC5)CC2)c1 2.68%, Cc1ccnn1CCC(=O)N1CCOC(Cc2ccc(F)cc2)C1 (stereo not given) -1.6%, COc1ccccc1Nc1ncc2c(n1)CN(C(=O)c1ccnn1C)CCN2 63.5% [at 57.5 µM], CCn1nccc1C(=O)N1CC[C@@H]2CN(Cc3ccccc3)[C@@H]2C1 -1.31%, O=C(CCl)N1CCC2(CC1)CC(c1cccc(C(F)(F)F)c1)=NO2 1.2% [at 57.5 µM], O=C(NCc1nnc2cc(-c3nc(C4CC4)no3)ccn12)c1nccc2ccccc12 51.9%, COC(=O)c1ccc2nc(CO[C@H]3CN(Cc4cccc(C#N)c4)C[C@H]3F)[nH]c2c1 5.97% [at 57.5 µM], Cn1cnc(S(=O)(=O)N2CCCN(C(=O)c3nccn3C)CCNC(=O)CC2c2ccccc2)c1 (stereo not given) -12%, NC(=O)COc1ccc(C(=O)N[C@@H]2CN(Cc3ccccn3)CCC[C@H]2O)cc1 70.4% [at 57.5 µM], O=C(Cn1cc(C(F)(F)F)ccc1=O)N1CCC2(CCCNC2=O)C1 (stereo not given) 69%, CC(C)N1C[C@@H]2OCC(=O)N(Cc3ccccc3)[C@@H]2C1 19.3% [at 77.1 µM], O=C(CC1CCOCC1)Nc1ccc(N2CCOCC2)cc1 -5.65%, Cc1noc(C)c1-c1cc(-c2ccc(CN(C)C)cc2)cn2cncc12 35.3% [at 57.5 µM], CNC(=O)c1cc(C2CC2)nc2onc(C3CCCN(C(=O)c4ccccc4OC)C3)c12 (stereo not given) -8.94%, CCNC(=O)Nc1ccc(OCC(=O)N2CCN(c3ccccn3)CC2)nc1 4.07%, CC(NC(=O)C1CCCN(c2cnc3nccnc3c2)C1)c1cccnc1 (stereo not given) 22.9%, CC(=O)NC1CC2(CCN(Cc3ccc(O)cc3)CC2)c2ccccc21 (stereo not given) 0.0678%, CC(=O)Nc1ccccc1NC(=O)CN1CCN(Cc2ncccc2C)CC1 0.932%, COCc1ncc(C)n1C1CCCN(C(=O)CCCc2ccccc2)C1 (stereo not given) -0.663%, Cc1c(CN2CC[C@H]3CC[C@@H](C2)N3)c(=O)n(-c2ccccc2)n1C -15.7%, O=C(NCCc1ccc(Cl)cc1)C1CN(C2CCCC2)C(=O)N1 (stereo not given) -2.82% [at 57.5 µM], CCN1CCN(C(=O)Cn2nc(C)c3sc(-c4ccccc4)nc3c2=O)CC1 4.84%, Cc1ccc(NC(=O)COc2ccc(-c3nnc4n3CCCC4)cc2)cc1C -5.53%, COCCN1CCC2(CCC1=O)CN(c1ccc(C#N)cn1)CCN2C (stereo not given) 10.4%, CC1=NOC2(CCN(CC3CC3)CC2)C1 -0.356% [at 77.1 µM], Cc1noc(C)c1-c1cnc(Nc2ccc(F)c(Cl)c2)c2c1CCO2 8.29% [at 57.5 µM], C#CCNC(=O)CC[C@@H]1CNC(=O)[C@@H]2C[C@H](NC(=O)c3ccco3)CN12 9.64% [at 57.5 µM], CCCN(C)C(=O)CC1COCCN1C(=O)Nc1cccc(SC)c1 (stereo not given) 9.19%, COC1C(=O)N(C2CCN(C(=O)c3cc(C)nn3C)CC2)C12CCOCC2 (stereo not given) -2.29%, Cc1cc(CNC(=O)c2cc(C(C)C)nn2C)c2[nH]c(C)c(C)c2c1 0.803%, O=C(NCc1ccccc1F)C1CC(c2ccccc2)CN(C(=O)COc2ccccc2)C1 (stereo not given) 0.0909%, Cn1nccc1CN1CCC2(C1)C(=O)Nc1ccccc12 (stereo not given) 3.26% [at 57.5 µM], CCn1ncnc1C1CC(=O)Nc2cc(OC)c(NS(C)(=O)=O)cc21 (stereo not given) 5.2%, C[S+](=O)([O-])NC1CCCN(Cc2ccc(-c3cncnc3)cc2)C1 (stereo not given) -3.7%, CN(C(=O)CCc1nc2ccccc2[nH]1)C1CCc2nn(C)c(=O)n2CC1 (stereo not given) 36.8%, COc1ccc(NC(=O)c2ccc3c(c2)OCC(=O)N(C)C3)c(F)c1 7.07% [at 57.5 µM], COc1ccccc1OCCNC(=O)C(C)C1CCOCC1 (stereo not given) -4.03%, Cc1ccc(C(=O)N2CCc3sc(C(=O)NCc4cc(F)cc(F)c4)cc3C2)cc1 1.07%, Cc1nc(CN2C[C@H](C(=O)N3CCN(c4ccccn4)CC3)C[C@@H]2c2ccc(F)cc2)cs1 6.89%, Cc1cnc(CCNC(=O)c2n[nH]c3ccccc23)n1C1CCC1 37.3%, CC(C)(C)OCC1CN(Cc2cccs2)[S+](=O)([O-])c2cccnc2O1 (stereo not given) 3.06% [at 16.1 µM], COc1ncccc1-c1nc(-c2c(C)noc2C)cc2c1cc(C)n2CCN(C)C 14.3% [at 57.5 µM], COC(=O)[C@H](Cc1ccc(OC)cc1)NC(=O)[C@H]1CN(C(=O)c2ccc(N(C)C)cc2)CCN1C(=O)c1cccs1 12.4%, COCCn1nc2n(c1=O)CCN(Cc1ccc(Br)o1)CC2 1.06%, CC(C)OCCCNC(=O)c1cc(-c2cccc(C(F)(F)F)c2)c2cccn2n1 7.21%, CN(CCc1ccccn1)c1ncccc1CNC(=O)C1CCc2ccccc21 (stereo not given) -3.09%, c1ccc(-n2cc(CN3CCCN(Cc4cccs4)CC3)nn2)cc1 26.8%, COc1cc(SC)c(OC)cc1CN1CCC2(CC(=O)NC2=O)C1 (stereo not given) 4.88%, COCCCNC(=O)c1cnc2n[nH]c(-c3ccccc3)c2n1 3.91% [at 57.5 µM], CCCCc1ccc(NC(=O)CN2C(=O)NC3(CCS(=O)(=O)CC3)C2=O)cc1 -0.795%, CCOc1ccc(CNC(=O)C2c3ccccc3CC(=O)N2CC)cc1 (stereo not given) 25.1%, O=C(NCc1ccccc1)c1ccccc1OC1CN(C2CCC2)C1 -6.25%, Cc1cn2nc(C(=O)NC3CCC(C)CC3)cc2c(N2CCCC2)n1 (stereo not given) 81.6%, COC1CCN(CC2CCCCCN2C(=O)NCc2ccc(F)cc2)CC1 (stereo not given) -0.412%
